The other results are listed elsewhere or left out.
Key:
Assay in all cases: glycan array binding signal (z-score within array); higher = stronger binding
Conditions in all cases: glycan notation: IUPAC condensed, linker removed
Gal(a1-3)Gal(b1-3)GlcNAc = biological target: Gal(a1-3)Gal(b1-3)GlcNAc
How it was run: (§1)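 From the Consortium for Functional Glycomics database, 3228 arrays were curated, keeping only those whose protein sequence was available. Binding is given as a within-array Z-score averaged across arrays sharing a protein sequence and across linkers. Negative Z-scores can be read as non-binding.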

[1] = biological target: Gal(a1-3)Gal(b1-3)GlcNAc(b1-2)Man
How it was run: as §1

[2] = biological target: Gal(a1-3)Gal(b1-3)GlcNAc(b1-2)Man(a1-3)[Gal(a1-3)Gal(b1-3)GlcNAc(b1-2)Man(a1-6)]Man(b1-4)GlcNAc(b1-4)GlcNAc
How it was run: as §1

[3] = biological target: Gal(a1-3)Gal(b1-3)GlcNAc(b1-3)GalNAc
How it was run: as §1

[4] = biological target: Gal(a1-3)Gal(b1-3)GlcNAc(b1-6)GalNAc
How it was run: as §1

[5] = biological target: Gal(a1-3)Gal(b1-3)[Fuc(a1-4)]GlcNAc(b1-2)Man(a1-3)[Gal(a1-3)Gal(b1-3)[Fuc(a1-4)]GlcNAc(b1-2)Man(a1-6)]Man(b1-4)GlcNAc(b1-4)GlcNAc
How it was run: as §1

Gal(a1-3)Gal(b1-4)Glc = biological target: Gal(a1-3)Gal(b1-4)Glc
How it was run: as §1

Gal(a1-3)Gal(b1-4)GlcNAc = biological target: Gal(a1-3)Gal(b1-4)GlcNAc
How it was run: as §1

[6] = biological target: Gal(a1-3)Gal(b1-4)GlcNAc(b1-2)Man
How it was run: as §1

[7] = biological target: Gal(a1-3)Gal(b1-4)GlcNAc(b1-2)Man(a1-3)[Gal(a1-3)Gal(b1-4)GlcNAc(b1-2)Man(a1-6)]Man(b1-4)GlcNAc(b1-4)GlcNAc
How it was run: as §1

[8] = biological target: Gal(a1-3)Gal(b1-4)GlcNAc(b1-3)GalNAc
How it was run: as §1

[9] = biological target: Gal(a1-3)Gal(b1-4)GlcNAc(b1-6)GalNAc
How it was run: as §1

[10] = biological target: Gal(a1-3)Gal(b1-4)[Fuc(a1-3)]GlcNAc
How it was run: as §1

[11] = biological target: Gal(a1-3)Gal(b1-4)[Fuc(a1-3)]GlcNAc(b1-2)Man(a1-3)[Gal(a1-3)Gal(b1-4)[Fuc(a1-3)]GlcNAc(b1-2)Man(a1-6)]Man(b1-4)GlcNAc(b1-4)GlcNAc
How it was run: as §1

Gal(a1-3)GalNAc = biological target: Gal(a1-3)GalNAc
How it was run: as §1

[12] = biological target: Gal(a1-3)[Gal(a1-4)]Gal(b1-4)GlcNAc
How it was run: as §1

[13] = biological target: Gal(a1-4)Gal(b1-3)GlcNAc(b1-2)Man(a1-3)[Gal(a1-4)Gal(b1-3)GlcNAc(b1-2)Man(a1-6)]Man(b1-4)GlcNAc(b1-4)GlcNAc
How it was run: as §1

Gal(a1-4)Gal(b1-4)Glc = biological target: Gal(a1-4)Gal(b1-4)Glc
How it was run: as §1

Gal(a1-4)Gal(b1-4)GlcNAc = biological target: Gal(a1-4)Gal(b1-4)GlcNAc
How it was run: as §1

[14] = biological target: Gal(a1-4)Gal(b1-4)GlcNAc(b1-2)Man(a1-3)[Gal(a1-4)Gal(b1-4)GlcNAc(b1-2)Man(a1-6)]Man(b1-4)GlcNAc(b1-4)GlcNAc
How it was run: as §1

[15] = biological target: Gal(a1-4)Gal(b1-4)GlcNAc(b1-3)Gal(b1-4)Glc
How it was run: as §1

Gal(a1-4)GlcNAc = biological target: Gal(a1-4)GlcNAc
How it was run: as §1

Gal(a1-6)Glc = biological target: Gal(a1-6)Glc
How it was run: as §1

Gal(b1-2)Gal = biological target: Gal(b1-2)Gal
How it was run: as §1

Gal(b1-3)Gal = biological target: Gal(b1-3)Gal
How it was run: as §1

Gal(b1-3)Gal(b1-4)GlcNAc = biological target: Gal(b1-3)Gal(b1-4)GlcNAc
How it was run: as §1

Gal(b1-3)GalNAc = biological target: Gal(b1-3)GalNAc
How it was run: as §1

[16] = biological target: Gal(b1-3)GalNAc(a1-3)[Fuc(a1-2)]Gal(b1-4)Glc
How it was run: as §1

[17] = biological target: Gal(b1-3)GalNAc(a1-3)[Fuc(a1-2)]Gal(b1-4)GlcNAc
How it was run: as §1

Gal(b1-3)GalNAc(b1-3)Gal = biological target: Gal(b1-3)GalNAc(b1-3)Gal
How it was run: as §1

[18] = biological target: Gal(b1-3)GalNAc(b1-3)Gal(a1-4)Gal(b1-4)Glc
How it was run: as §1

[19] = biological target: Gal(b1-3)GalNAc(b1-4)Gal(b1-4)Glc
How it was run: as §1

[20] = biological target: Gal(b1-3)GalNAc(b1-4)[Neu5Ac(a2-3)]Gal(b1-4)Glc
How it was run: as §1

Gal(b1-3)GlcNAc = biological target: Gal(b1-3)GlcNAc
How it was run: as §1

[21] = biological target: Gal(b1-3)GlcNAc(a1-3)Gal(b1-4)GlcNAc
How it was run: as §1

[22] = biological target: Gal(b1-3)GlcNAc(a1-6)Gal(b1-4)GlcNAc
How it was run: as §1

Gal(b1-3)GlcNAc(b1-2)Man = biological target: Gal(b1-3)GlcNAc(b1-2)Man
How it was run: as §1

[23] = biological target: Gal(b1-3)GlcNAc(b1-2)Man(a1-3)[Gal(b1-3)GlcNAc(b1-2)Man(a1-6)]Man(b1-4)GlcNAc(b1-4)GlcNAc
How it was run: as §1

B1: Loc1 (Escherichia coli) (protein)
chain: APCALTNVGEQRGTYILKPLSMKGNLTAEKIENTGNIIECTDLQETTNAIKVHFLTQNALKFKVGSRHYIINFPFEYDGKKIELPGKSSYNLEEMLSAINFTIPYSIASVSDSSNTADIFPGTPFPLLFEIEVSSCTGNNTNCNSVRFNYNLNTILQVNLMTHHHHHH
For B1, the “glycan array binding signal (z-score)” value (Gal(a1-3)Gal(b1-3)GlcNAc) was -0.498, the “glycan array binding signal (z-score)” value [1] was 0.062 and the “glycan array binding signal (z-score)” value [2] was -0.241. For the same binder, the “glycan array binding signal (z-score)” value [3] was -0.285, the “glycan array binding signal (z-score)” value [4] was -0.732 and the “glycan array binding signal (z-score)” value [5] was -0.81. For the same binder, the “glycan array binding signal (z-score)” value (Gal(a1-3)Gal(b1-4)Glc) was 0.285, the “glycan array binding signal (z-score)” value (Gal(a1-3)Gal(b1-4)GlcNAc) was -0.512 and the “glycan array binding signal (z-score)” value [6] was 0.198. The “glycan array binding signal (z-score)” value [7] was -0.634, the “glycan array binding signal (z-score)” value [8] was -0.17 and the “glycan array binding signal (z-score)” value [9] was -0.5. For the same binder, the “glycan array binding signal (z-score)” value [10] was 0.741, the “glycan array binding signal (z-score)” value [11] was 1.32 and the “glycan array binding signal (z-score)” value (Gal(a1-3)GalNAc) was 7.25. The “glycan array binding signal (z-score)” value [12] was -0.079, the “glycan array binding signal (z-score)” value [13] was -0.697 and the “glycan array binding signal (z-score)” value (Gal(a1-4)Gal(b1-4)Glc) was -0.885. The “glycan array binding signal (z-score)” value (Gal(a1-4)Gal(b1-4)GlcNAc) was 0.762, the “glycan array binding signal (z-score)” value [14] was -1.05 and the “glycan array binding signal (z-score)” value [15] was 0.176. The “glycan array binding signal (z-score)” value (Gal(a1-4)GlcNAc) was 0.019, the “glycan array binding signal (z-score)” value (Gal(a1-6)Glc) was -0.245 and the “glycan array binding signal (z-score)” value (Gal(b1-2)Gal) was 1.18. The “glycan array binding signal (z-score)” value (Gal(b1-3)Gal) was -0.236, the “glycan array binding signal (z-score)” value (Gal(b1-3)Gal(b1-4)GlcNAc) was -0.198 and the “glycan array binding signal (z-score)” value (Gal(b1-3)GalNAc) was 0.154. The “glycan array binding signal (z-score)” value [16] was 0.497, the “glycan array binding signal (z-score)” value [17] was 0.341 and the “glycan array binding signal (z-score)” value (Gal(b1-3)GalNAc(b1-3)Gal) was -0.837. For the same binder, the “glycan array binding signal (z-score)” value [18] was 0.414, the “glycan array binding signal (z-score)” value [19] was -0.233 and the “glycan array binding signal (z-score)” value [20] was -0.406. The “glycan array binding signal (z-score)” value (Gal(b1-3)GlcNAc) was -0.652, the “glycan array binding signal (z-score)” value [21] was -0.463 and the “glycan array binding signal (z-score)” value [22] was -0.709. The “glycan array binding signal (z-score)” value (Gal(b1-3)GlcNAc(b1-2)Man) was -0.067 and the “glycan array binding signal (z-score)” value [23] was -0.094.
